# System: MMP in the MDA-MB-231-derived extracellular vesicles
# Experiment: Digital detection of MDA-MB-231-derived extracellular vesicles through MMP activity in wells (SB substrates)
# Assay type: biochemical, Human
# Conditions: 24 hr; for Expected value λ / Number of positives / Positive ratio / Double-positive ratio 1 (double-positives with respect to all the positives) / Double-positive ratio 2 (double-positives with respect to the positives for any one of SB2, SB6, SB7, SB9, and SB10) / Double-positive ratio 3 (double-positives with respect to the positives for Custom #2T) / Expected value λ (×1): MP; for Double-positive ratio 1 Average / Double-positive ratio 2 Average / Double-positive ratio 3 Average / SB Expected value λ Average: MP with #2T, average of the results under the three conditions; for Expected value λ (×1): at x1
# Procedure: The concentration of the solution is 10 μg/mL. […] The solution was further diluted 2-fold to prepare a standard sample at a concentration of x1/4, further diluted 3-fold to prepare a standard sample at a concentration of x1/12, and further diluted 3-fold to prepare a standard sample at a concentration of x1/36. Thus, the standard samples with four concentrations were prepared.
# In addition, 1 mM Alexa Fluor 647 was used as a standard fluorescent substance, and each of the MMP14 detection solutions contained the standard fluorescent substance at a final concentration of 2 μM.
# 50 μL of each of the MMP detection solutions was added to 50 μL of each of the samples, a reaction was performed at 30° C., and MMP activity was evaluated.
substance,measurement,setting,value
"TAMRA-GGPLGLAGGK(TQ3) (TAMRA, TQ3 quencher) [Custom #2T]",Expected value λ,1.25 μM #2T with 1.25 μM SB2,0.1924
same,Number of positives,1.25 μM #2T with 1.25 μM SB2,"4,970"
same,Positive ratio,1.25 μM #2T with 1.25 μM SB2,0.175
same,Expected value λ,1.25 μM #2T with 1.25 μM SB6,0.1888
same,Number of positives,1.25 μM #2T with 1.25 μM SB6,"4,874"
same,Positive ratio,1.25 μM #2T with 1.25 μM SB6,0.172
same,Expected value λ,1.25 μM #2T with 1.25 μM SB7,0.1494
same,Number of positives,1.25 μM #2T with 1.25 μM SB7,"3,938"
same,Positive ratio,1.25 μM #2T with 1.25 μM SB7,0.1388
same,Expected value λ,1.25 μM #2T with 1.25 μM SB9,0.1813
same,Number of positives,1.25 μM #2T with 1.25 μM SB9,"4,693"
same,Positive ratio,1.25 μM #2T with 1.25 μM SB9,0.1658
same,Expected value λ,1.25 μM #2T with 1.25 μM SB10,0.2246
same,Number of positives,1.25 μM #2T with 1.25 μM SB10,"5,696"
same,Positive ratio,1.25 μM #2T with 1.25 μM SB10,0.2012
same,Expected value λ,2.5 μM #2T with 2.5 μM SB2,0.1783
same,Number of positives,2.5 μM #2T with 2.5 μM SB2,"4,617"
same,Positive ratio,2.5 μM #2T with 2.5 μM SB2,0.1633
same,Expected value λ,2.5 μM #2T with 2.5 μM SB6,0.1962
same,Number of positives,2.5 μM #2T with 2.5 μM SB6,"5,057"
same,Positive ratio,2.5 μM #2T with 2.5 μM SB6,0.1781
same,Expected value λ,2.5 μM #2T with 2.5 μM SB7,0.167
same,Number of positives,2.5 μM #2T with 2.5 μM SB7,"4,363"
same,Positive ratio,2.5 μM #2T with 2.5 μM SB7,0.1538
same,Expected value λ,2.5 μM #2T with 2.5 μM SB9,0.2269
same,Number of positives,2.5 μM #2T with 2.5 μM SB9,"5,748"
same,Positive ratio,2.5 μM #2T with 2.5 μM SB9,0.203
same,Expected value λ,2.5 μM #2T with 2.5 μM SB10,0.2226
same,Number of positives,2.5 μM #2T with 2.5 μM SB10,"5,655"
same,Positive ratio,2.5 μM #2T with 2.5 μM SB10,0.1996
same,Expected value λ,5 μM #2T with 5 μM SB2,0.1563
same,Number of positives,5 μM #2T with 5 μM SB2,"4,098"
same,Positive ratio,5 μM #2T with 5 μM SB2,0.1447
same,Expected value λ,5 μM #2T with 5 μM SB6,0.1379
same,Number of positives,5 μM #2T with 5 μM SB6,"3,661"
same,Positive ratio,5 μM #2T with 5 μM SB6,0.1288
same,Expected value λ,5 μM #2T with 5 μM SB7,0.1265
same,Number of positives,5 μM #2T with 5 μM SB7,"3,356"
same,Positive ratio,5 μM #2T with 5 μM SB7,0.1188
same,Expected value λ,5 μM #2T with 5 μM SB9,0.1925
same,Number of positives,5 μM #2T with 5 μM SB9,"4,962"
same,Positive ratio,5 μM #2T with 5 μM SB9,0.1752
same,Expected value λ,5 μM #2T with 5 μM SB10,0.1192
same,Number of positives,5 μM #2T with 5 μM SB10,"3,671"
same,Positive ratio,5 μM #2T with 5 μM SB10,0.1124
"QXL520-Pro-Tyr-Ala-Tyr-Trp-Met-Arg-Lys(5-FAM)-NH2 (PYAYWMRK; QXL520, 5-FAM, C-terminal amide; printed: Pro-Tyr-Ala-Tyr-Trp-Met-Arg-Lys) [SB7]",Double-positive ratio 1 Average,,0.1276
same,Double-positive ratio 2 Average,,0.1387
same,Double-positive ratio 3 Average,,0.641
same,SB Expected value λ Average,,1.083
same,Double-positive ratio 1 (double-positives with respect to all the positives),1.25 μM with 1.25 μM #2T,0.1442
same,"Double-positive ratio 2 (double-positives with respect to the positives for any one of SB2, SB6, SB7, SB9, and SB10)",1.25 μM with 1.25 μM #2T,0.1636
same,Double-positive ratio 3 (double-positives with respect to the positives for Custom #2T),1.25 μM with 1.25 μM #2T,0.5493
same,Expected value λ,1.25 μM with 1.25 μM #2T,0.6272
same,Number of positives,1.25 μM with 1.25 μM #2T,"13,220"
same,Positive ratio,1.25 μM with 1.25 μM #2T,0.4659
same,Expected value λ (×1),1.25 μM with 1.25 μM #2T,1.882
same,Double-positive ratio 1 (double-positives with respect to all the positives),2.5 μM with 2.5 μM #2T,0.1093
same,"Double-positive ratio 2 (double-positives with respect to the positives for any one of SB2, SB6, SB7, SB9, and SB10)",2.5 μM with 2.5 μM #2T,0.1185
same,Double-positive ratio 3 (double-positives with respect to the positives for Custom #2T),2.5 μM with 2.5 μM #2T,0.5833
same,Expected value λ,2.5 μM with 2.5 μM #2T,1.414
same,Number of positives,2.5 μM with 2.5 μM #2T,"21,473"
same,Positive ratio,2.5 μM with 2.5 μM #2T,0.7568
same,Expected value λ (×1),2.5 μM with 2.5 μM #2T,4.242
same,Double-positive ratio 1 (double-positives with respect to all the positives),5 μM with 5 μM #2T,0.1293
same,"Double-positive ratio 2 (double-positives with respect to the positives for any one of SB2, SB6, SB7, SB9, and SB10)",5 μM with 5 μM #2T,0.1339
same,Double-positive ratio 3 (double-positives with respect to the positives for Custom #2T),5 μM with 5 μM #2T,0.7905
same,Expected value λ,5 μM with 5 μM #2T,1.2081
same,Number of positives,5 μM with 5 μM #2T,"19,812"
same,Positive ratio,5 μM with 5 μM #2T,0.7012
same,Expected value λ (×1),5 μM with 5 μM #2T,3.6243
"QXL520-Arg-Pro-Leu-Ala-Leu-Trp-Arg-Lys(5-FAM)-NH2 (RPLALWRK; QXL520, 5-FAM, C-terminal amide; printed: Arg-Pro-Leu-Ala-Leu-Trp-Arg-Lys) [SB9]",Double-positive ratio 1 Average,,0.1473
same,Double-positive ratio 2 Average,,0.1882
same,Double-positive ratio 3 Average,,0.4048
same,SB Expected value λ Average,,0.5016
same,Double-positive ratio 1 (double-positives with respect to all the positives),1.25 μM with 1.25 μM #2T,0.1398
same,"Double-positive ratio 2 (double-positives with respect to the positives for any one of SB2, SB6, SB7, SB9, and SB10)",1.25 μM with 1.25 μM #2T,0.1854
same,Double-positive ratio 3 (double-positives with respect to the positives for Custom #2T),1.25 μM with 1.25 μM #2T,0.3622
same,Expected value λ,1.25 μM with 1.25 μM #2T,0.3915
same,Number of positives,1.25 μM with 1.25 μM #2T,"9,168"
same,Positive ratio,1.25 μM with 1.25 μM #2T,0.324
same,Expected value λ (×1),1.25 μM with 1.25 μM #2T,1.1745
same,Double-positive ratio 1 (double-positives with respect to all the positives),2.5 μM with 2.5 μM #2T,0.1417
same,"Double-positive ratio 2 (double-positives with respect to the positives for any one of SB2, SB6, SB7, SB9, and SB10)",2.5 μM with 2.5 μM #2T,0.1786
same,Double-positive ratio 3 (double-positives with respect to the positives for Custom #2T),2.5 μM with 2.5 μM #2T,0.4071
same,Expected value λ,2.5 μM with 2.5 μM #2T,0.6211
same,Number of positives,2.5 μM with 2.5 μM #2T,"13,100"
same,Positive ratio,2.5 μM with 2.5 μM #2T,0.4626
same,Expected value λ (×1),2.5 μM with 2.5 μM #2T,1.863
same,Double-positive ratio 1 (double-positives with respect to all the positives),5 μM with 5 μM #2T,0.1604
same,"Double-positive ratio 2 (double-positives with respect to the positives for any one of SB2, SB6, SB7, SB9, and SB10)",5 μM with 5 μM #2T,0.2005
same,Double-positive ratio 3 (double-positives with respect to the positives for Custom #2T),5 μM with 5 μM #2T,0.445
same,Expected value λ,5 μM with 5 μM #2T,0.4923
same,Number of positives,5 μM with 5 μM #2T,"11,014"
same,Positive ratio,5 μM with 5 μM #2T,0.3888
same,Expected value λ (×1),5 μM with 5 μM #2T,1.477

# From patent US20250290928A1, “METHOD, KIT AND DEVICE FOR DETECTING EXTRACELLULAR VESICLES” (priority 2022, published 2025)
